Reference: PubChem BioAssay AID504714 (Sanford-Burnham Center for Chemical Genomics, 2011)
Out of some 1,000 compounds screened, fewer than 10 were called active. The rule behind the calls is not given here. Only a part is listed here, and it is no random draw.

experiment: E. coli UDG inhibitors, confirmation, counter-screen for APOBEC3A inhibitor project, biochemical, single concentration, fluorescence, FAM/TAMRA oligo (AID 504714); conditions: UDG counterscreen, FAM/TAMRA uracil oligo fluorescence; at 20 µM; hits give high values

Structure (SMILES)	inhibition
O=C(O)CCn1cc(C=C2C(=O)NC(=S)NC2=O)c(-c2cccc(Br)c2)n1	inactive: 4.11%
